Weaker means in comparison with the reference protein, sequence or condition of that experiment. Protein sequences can lack the tags named with them.
Molecular target: T1, Redβ single strand annealing protein (bacteriophage λ) (UniProt P03698)
T1 sequence: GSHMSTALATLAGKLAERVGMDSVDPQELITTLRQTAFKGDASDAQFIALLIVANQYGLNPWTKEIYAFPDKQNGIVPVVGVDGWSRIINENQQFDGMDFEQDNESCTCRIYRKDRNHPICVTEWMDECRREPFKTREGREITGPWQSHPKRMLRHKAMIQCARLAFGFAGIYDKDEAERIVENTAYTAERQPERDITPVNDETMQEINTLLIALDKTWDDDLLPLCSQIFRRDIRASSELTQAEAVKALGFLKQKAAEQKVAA
Experiment: EMSA
Conditions: ssDNA alone, PBS, 10 mM Mg2+ or ammonium acetate, EMSA: 10 uM Redβ, 50 uM nt DNA, 37 C, in PBS, or 20 mM Tris-HCl pH 7.5/10 mM NaCl/10 mM MgCl2, or 50 mM ammonium acetate pH 7.0, recombinant protein, single-stranded DNA

CCATCCGCAAAAATCGAGCTATGCAGGGCGATTCTGCTCTAAGCCATCCG [Cy5 50mer]
binding result (label: 5'-Cy5): binds more weakly

GCGGATGGCTTAGAGCAGAATCGCCCTGCATAGCTCGATTTTTGCGGATG [Cy3 50mer]
binding result (label: 5'-Cy3): binds more weakly
